Source: article PMC6497791
No constants are given. Whether binding was seen depends on the method and setting. In cells and extracts the contact can be indirect. A yes stands for co-enrichment or nearness to the bait. Other partners may have been found. Blank lines part the entries; values can stand above or below the binder they belong to.

Chains of the proteins cited; added tags and fusions are not shown. Residues count along the entry.
UniProt P22723, residues 39-474: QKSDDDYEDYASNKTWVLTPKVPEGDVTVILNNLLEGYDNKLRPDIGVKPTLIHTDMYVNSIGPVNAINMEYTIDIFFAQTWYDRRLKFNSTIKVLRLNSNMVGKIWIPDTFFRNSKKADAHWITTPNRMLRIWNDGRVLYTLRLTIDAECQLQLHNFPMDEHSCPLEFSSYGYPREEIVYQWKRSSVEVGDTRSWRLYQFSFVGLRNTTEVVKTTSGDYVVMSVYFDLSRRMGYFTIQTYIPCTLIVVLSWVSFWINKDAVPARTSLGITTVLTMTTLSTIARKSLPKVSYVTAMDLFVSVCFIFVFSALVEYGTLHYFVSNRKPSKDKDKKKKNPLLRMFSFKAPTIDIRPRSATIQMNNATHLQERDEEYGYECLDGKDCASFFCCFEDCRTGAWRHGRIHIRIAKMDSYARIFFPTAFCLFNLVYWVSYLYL

Target: GABA type A receptor γ2 subunit (mouse (endogenous in cortical tissue)) (UniProt P22723)
Assay: affinity purification with mass spectrometry; mouse cortical tissue lysate (mice injected with vehicle or 10 mg/kg DZP, 12 h) in co-IP buffer (50 mM Tris HCl pH 7.6, 50 mM NaCl, 0.25% Igepal, 1 mM EDTA), immunoprecipitated overnight with rabbit γ2 subunit antibody or rabbit IgG, Protein A Sepharose, 4°C; label-free HPLC-ESI-MS/MS; hits at least 3:1 enriched over IgG control

B2: ELAV like RNA binding protein 3 (protein, UniProt Q60900-2 1-360)
chain: MVTQILGAMESQVGGGPAGPALPNGPLLGTNGATDDSKTNLIVNYLPQNMTQDEFKSLFGSIGDIESCKLVRDKITGQSLGYGFVNYSDPNDADKAINTLNGLKLQTKTIKVSYARPSSASIRDANLYVSGLPKTMSQKEMEQLFSQYGRIITSRILLDQATGVSRGVGFIRFDKRIEAEEAIKGLNGQKPLGAAEPITVKFANNPSQKTGQALLTHLYQSSARRYAGPLHHQTQRFRLDNLLNMAYGVKRFSPIAIDGMSGLAGVGLSGGAAGAGWCIFVYNLSPEADESVLWQLFGPFGAVTNVKVIRDFTTNKCKGFGFVTMTNYDEAAMAIASLNGYRLGERVLQVSFKTSKQHKA
binding: binds

B5: 2′,3′-cyclic nucleotide 3′ phosphodiesterase (protein, UniProt P16330 1-420)
chain: MNTSFTRKSHTFLPKLFFRKMSSSGAKEKPELQFPFLQDEDTVATLHECKTLFILRGLPGSGKSTLARLILEKYHDGTKMVSADAYKIIPGSRADFSEAYKRLDEDLAGYCRRDIRVLVLDDTNHERERLDQLFEMADQYQYQVVLVEPKTAWRLDCAQLKEKNQWQLSADDLKKLKPGLEKDFLPLYFGWFLTKKSSETLRKAGQVFLEELGNHKAFKKELRHFISGDEPKEKLELVSYFGKRPPGVLHCTTKFCDYGKAAGAEEYAQQEVVKRSYGKAFKLSISALFVTPKTAGAQVVLTDQELQLWPSDLDKPSASEGLPPGSRAHVTLGCAADVQPVQTGLDLLDILQQVKGGSQGEAVGELPRGKLYSLGKGRWMLSLTKKMEVKAIFTGYYGKGKPVPIHGSRKGGAMQICTII
binding: binds

B7: ATP synthase peripheral stalk-membrane subunit b (protein, UniProt Q9CQQ7 43-256)
chain: PLPPLPEYGGKVRLGLIPEEFFQFLYPKTGVTGPYVLGTGLSLYFLSKEIYVITPETFSTISVVGLIVYVIKKYGASFGEFIDKLNEEKIAQLEEVKQSSMKQIQDAIDMEKAQQALVQKRHYLFDVQRNNIALALEVTYRERLHKAYKEVKNRLDYHISVQNMMRRKEEEHMIDWVEKHVVKSISVQQEKETIAKCIEDLKLLAKKAQAQPIM
binding: binds

B8: EH domain containing 3 (protein, UniProt Q9QXY6 1-535)
chain: MFSWLGNDDRRKKDPEVFQTVSDGLKKLYKTKLLPLEEYYRFHEFHSPALEDADFDNKPMVLLVGQYSTGKTTFIRYLLEQDFPGMRIGPEPTTDSFIAVMQGDVEGIIPGNALVVDPKKPFRKLNAFGNAFLNRFVCAQLPNAVLESISVIDTPGILSGEKQRISRGYDFAAVLEWFAERVDRIILLFDAHKLDISDEFSEVIKALKNHEDKMRVVLNKADQIETQQLMRVYGALMWSLGKIVNTPEVIRVYIGSFWSHPLLIPDNRKLFEAEEQDLFRDIQSLPRNAALRKLNDLIKRARLAKVHAYIISSLKKEMPSVFGKDTKKKELVNNLAEIYGRIEREHQISPGDFPNLKRMQDQLQAQDFSKFQPLKSKLLEVVDDMLAHDIAQLMVLVRQEETQRPVQMVKGGAFEGTLQGPFGHGYGEGAGEGIDDAEWVVARDKPMYDEIFYTLSPVDGKITGANAKKEMVRSKLPNSVLGKIWKLADIDKDGMLDDEEFALANHLIKVKLEGHELPSELPAHLLPPSKRKVSE
binding: binds

Other lines, results leading:

binding: binds
B1: Glutathione S-transferase mu 3 (protein, UniProt P48774 1-224)
chain: MSSKSMVLGYWDIRGLAHAIRMLLEFTDTSYEEKRYICGEAPDYDRSQWLDVKFKLDLDFPNLPYLMDGKNKITQSNAILRYIARKHNMCGDTEEEKIRVDIMENQIMDFRMQLVRLCYNSNHENLKPQYLEQLPAQLKQFSLFLGKFTWFAGEKLTFVDFLTYDVLDQNRIFEPKCLDEFPNLKAFMCRFEALEKIAAFLQSDRFFKMPINNKMAKWGNKCLC

binding: binds
B3: Ubiquinol-cytochrome c reductase core protein 1 (protein, UniProt Q9CZ13 35-480)
chain: TATFAQALQSVPETQVSILDNGLRVASEQSSHATCTVGVWIDAGSRYETEKNNGAGYFLEHLAFKGTKNRPGNALEKEVESIGAHLNAYSTREHTAYLIKALSKDLPKVVELLADIVQNSSLEDSQIEKERDVILREMQENDASMQNVVFDYLHATAFQGTPLAQAVEGPSENVRRLSRTDLTDYLNRHYKAPRMVLAAAGGVEHQQLLDLAQKHLSSVSRVYEEDAVPGLTPCRFTGSEIRHRDDALPLAHVAIAVEGPGWANPDNVTLQVANAIIGHYDCTYGGGVHLSSPLASVAVANKLCQSFQTFNISYSDTGLLGAHFVCDAMSIDDMVFFLQGQWMRLCTSATESEVTRGKNILRNALVSHLDGTTPVCEDIGRSLLTYGRRIPLAEWESRIQEVDAQMLRDICSKYFYDQCPAVAGYGPIEQLPDYNRIRSGMFWLRF

binding: binds
B4: Neurofilament heavy (protein, UniProt P19246 1-1090)
chain: MMSFGSADALLGAPFAPLHGGGSLHYSLSRKAGPGGTRSAAGSSSGFHSWARTSVSSVSASPSRFRGAASSTDSLDTLSNGPEGCVVAAVAARSEKEQLQALNDRFAGYIDKVRQLEAHNRSLEGEAAALRQQQAGRAAMGELYEREVREMRGAVLRLGAARGQLRLEQEHLLEDIAHVRQRLDEEARQREEAEAAARALARFAQEAEAARVELQKKAQALQEECGYLRRHHQEEVGELLGQIQGCGAAQAQAQAEARDALKCDVTSALREIRAQLEGHAVQSTLQSEEWFRVRLDRLSEAAKVNTDAMRSAQEEITEYRRQLQARTTELEALKSTKESLERQRSELEDRHQADIASYQDAIQQLDSELRNTKWEMAAQLREYQDLLNVKMALDIEIAAYRKLLEGEECRIGFGPSPFSLTEGLPKIPSISTHIKVKSEEMIKVVEKSEKETVIVEGQTEEIRVTEGVTEEEDKEAQGQEGEEAEEGEEKEEEEGAAATSPPAEEAASPEKETKSRVKEEAKSPGEAKSPGEAKSPAEAKSPGEAKSPGEAKSPGEAKSPAEPKSPAEPKSPAEAKSPAEPKSPATVKSPGEAKSPSEAKSPAEAKSPAEAKSPAEAKSPAEAKSPAEAKSPAEAKSPATVKSPGEAKSPSEAKSPAEAKSPAEAKSPAEAKSPAEVKSPGEAKSPAEPKSPAEAKSPAEVKSPAEAKSPAEVKSPGEAKSPAAVKSPAEAKSPAAVKSPGEAKSPGEAKSPAEAKSPAEAKSPIEVKSPEKAKTPVKEGAKSPAEAKSPEKAKSPVKEDIKPPAEAKSPEKAKSPVKEGAKPPEKAKPLDVKSPEAQTPVQEEAKHPTDIRPPEQVKSPAKEKAKSPEKEEAKTSEKVAPKKEEVKSPVKEEVKAKEPPKKVEEEKTLPTPKTEAKESKKDEAPKEAPKPKVEEKKETPTEKPKDSTAEAKKEEAGEKKKAVASEEETPAKLGVKEEAKPKEKTETTKTEAEDTKAKEPSKPTETEKPKKEEMPAAPEKKDTKEEKTTESRKPEEKPKMEAKVKEDDKSLSKEPSKPKTEKAEKSSSTDQKESQPPEKTTEDKATKGEK

binding: binds
B6: Ubiquinol-cytochrome c reductase complex III subunit VII (protein, UniProt Q9CQ69 1-82)
chain: MGREFGNLARIRHVISYSLSPFEQRAFPSYFSKGIPNVLRRTRERILRVAPPFVVVYLIYTWGNQEFEQSKRKNPAMYENDK

binding: binds
B9: Interleukin enhancer binding factor 3 (protein, UniProt Q9Z1X4-3 1-911)
chain: MALYHHHFITRRRRRPMRIFVNDDRHVMAKHSSVYPTQEELEAVQNMVSHTERALKAVSDWIDEQEKGNSELSEAENMDTPPDDESKEGAGEQKAEHMTRTLRGVMRVGLVAKGLLLKGDLDLELVLLCKEKPTTALLDKVADNLAIQLTTVTEDKYEILQSVDDAAIVIKNTKEPPLSLTIHLTSPVVREEMEKVLAGETLSVNDPPDVLDRQKCLAALASLRHAKWFQARANGLKSCVIVIRVLRDLCTRVPTWGPLRGWPLELLCEKSIGTANRPMGAGEALRRVLECLASGIVMPDGSGIYDPCEKEATDAIGHLDRQQREDITQSAQHALRLAAFGQLHKVLGMDPLPSKMPKKPKNENPVDYTVQIPPSTTYAITPMKRPMEEDGEEKSPSKKKKKIQKKEEKADPPQAMNALMRLNQLKPGLQYKLISQTGPVHAPIFTMSVEVDGSNFEASGPSKKTAKLHVAVKVLQDMGLPTGAEGRDSSKGEDSAEESDGKPAIVAPPPVVEAVSNPSSVFPSDATTEQGPILTKHGKNPVMELNEKRRGLKYELISETGGSHDKRFVMEVEVDGQKFQGAGSNKKVAKAYAALAALEKLFPDTPLALEANKKKRTPVPVRGGPKFAAKPHNPGFGMGGPMHNEVPPPPNIRGRGRGGNIRGRGRGRGFGGANHGGGYMNAGAGYGSYGYSSNSATAGYSQFYSNGGHSGNAGGGGSGGGGGSSSYSSYYQGDSYNSPVPPKHAGKKPLHGGQQKASYSSGYQSHQGQQQPYNQSQYSSYGTPQGKQKGYGHGQGSYSSYSNSYNSPGGGGGSDYSYDSKFNYSGSGGRSGGNSYGSSGSSSYNTGSHGGYGTGSGGSSSYQGKQGGYSSQSNYSSPGSSQSYSGPASSYQSSQGGYSRNTEHSMNYQYR
